Reference: the supplement of paper PMC12819154, “High-throughput peptide-centric local stability assay extends protein–ligand identification to membrane proteins, tissues and bacteria” (Nature Structural & Molecular Biology, 2025)
This is one part of the list. Most entries show no effect beyond the scatter of the controls.

Chains of the proteins cited; added tags and fusions are not shown. Lines headed by an entry give the natural chain unless they say otherwise; changes in a name come on top.
UniProt V9HVX0: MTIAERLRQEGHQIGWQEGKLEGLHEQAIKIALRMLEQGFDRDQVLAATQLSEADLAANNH
UniProt P77730: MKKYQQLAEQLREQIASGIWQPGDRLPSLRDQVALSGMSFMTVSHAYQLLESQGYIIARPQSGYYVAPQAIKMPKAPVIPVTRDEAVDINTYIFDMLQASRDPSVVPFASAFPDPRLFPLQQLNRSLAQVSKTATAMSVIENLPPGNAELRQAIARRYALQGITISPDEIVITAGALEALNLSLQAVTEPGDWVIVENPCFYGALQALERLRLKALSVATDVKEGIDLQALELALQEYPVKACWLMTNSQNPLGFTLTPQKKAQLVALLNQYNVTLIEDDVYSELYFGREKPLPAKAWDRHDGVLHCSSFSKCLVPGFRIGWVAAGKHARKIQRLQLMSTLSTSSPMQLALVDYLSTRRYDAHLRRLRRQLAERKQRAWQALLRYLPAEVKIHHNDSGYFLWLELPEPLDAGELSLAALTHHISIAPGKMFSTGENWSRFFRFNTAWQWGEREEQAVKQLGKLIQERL
UniProt Q46927: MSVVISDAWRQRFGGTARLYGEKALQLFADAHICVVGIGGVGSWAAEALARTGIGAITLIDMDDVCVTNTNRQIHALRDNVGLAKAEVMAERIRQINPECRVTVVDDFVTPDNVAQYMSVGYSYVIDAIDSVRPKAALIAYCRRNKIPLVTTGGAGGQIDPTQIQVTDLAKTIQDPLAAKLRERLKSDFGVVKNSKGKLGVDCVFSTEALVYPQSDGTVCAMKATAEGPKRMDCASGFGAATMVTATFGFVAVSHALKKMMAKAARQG
UniProt Q46901: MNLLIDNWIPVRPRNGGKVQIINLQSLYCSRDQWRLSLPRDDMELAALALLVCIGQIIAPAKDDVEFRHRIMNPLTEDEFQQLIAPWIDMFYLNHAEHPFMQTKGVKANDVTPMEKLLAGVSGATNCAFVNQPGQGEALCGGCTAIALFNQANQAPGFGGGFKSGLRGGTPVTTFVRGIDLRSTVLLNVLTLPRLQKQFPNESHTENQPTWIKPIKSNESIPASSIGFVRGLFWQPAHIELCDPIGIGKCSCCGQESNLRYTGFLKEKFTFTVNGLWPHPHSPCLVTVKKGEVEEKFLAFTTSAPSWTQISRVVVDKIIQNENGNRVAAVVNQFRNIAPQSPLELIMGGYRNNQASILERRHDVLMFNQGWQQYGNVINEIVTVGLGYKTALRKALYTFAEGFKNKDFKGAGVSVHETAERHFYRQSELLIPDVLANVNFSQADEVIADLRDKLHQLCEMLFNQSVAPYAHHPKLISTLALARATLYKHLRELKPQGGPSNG
UniProt Q47319: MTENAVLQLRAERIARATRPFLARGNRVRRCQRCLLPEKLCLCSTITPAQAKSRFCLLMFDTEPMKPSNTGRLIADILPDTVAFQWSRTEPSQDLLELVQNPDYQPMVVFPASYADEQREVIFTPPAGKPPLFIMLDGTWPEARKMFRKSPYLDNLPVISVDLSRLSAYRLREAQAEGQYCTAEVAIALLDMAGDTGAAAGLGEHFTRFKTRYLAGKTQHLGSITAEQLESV
UniProt P77783: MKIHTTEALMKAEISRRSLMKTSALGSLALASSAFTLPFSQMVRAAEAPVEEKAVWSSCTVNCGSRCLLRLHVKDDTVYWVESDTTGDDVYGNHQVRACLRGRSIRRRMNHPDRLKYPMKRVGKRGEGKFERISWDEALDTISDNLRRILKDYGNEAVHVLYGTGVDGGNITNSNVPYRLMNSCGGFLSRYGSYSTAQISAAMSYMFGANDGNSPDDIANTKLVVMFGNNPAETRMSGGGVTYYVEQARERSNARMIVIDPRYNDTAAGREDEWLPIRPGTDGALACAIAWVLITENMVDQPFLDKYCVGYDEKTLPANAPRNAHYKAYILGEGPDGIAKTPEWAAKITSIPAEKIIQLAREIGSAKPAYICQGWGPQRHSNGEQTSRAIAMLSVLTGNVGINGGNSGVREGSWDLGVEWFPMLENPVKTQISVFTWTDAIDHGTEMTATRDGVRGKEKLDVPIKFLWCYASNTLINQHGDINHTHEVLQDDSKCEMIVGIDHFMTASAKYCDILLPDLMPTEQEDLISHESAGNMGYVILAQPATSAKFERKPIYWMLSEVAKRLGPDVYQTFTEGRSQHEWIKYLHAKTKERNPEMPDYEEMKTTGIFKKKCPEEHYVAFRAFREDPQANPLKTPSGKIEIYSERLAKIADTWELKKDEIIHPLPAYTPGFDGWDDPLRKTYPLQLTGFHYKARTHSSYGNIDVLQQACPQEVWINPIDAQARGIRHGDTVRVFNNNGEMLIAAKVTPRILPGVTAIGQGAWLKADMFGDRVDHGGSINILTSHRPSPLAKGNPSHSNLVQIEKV
UniProt P77695: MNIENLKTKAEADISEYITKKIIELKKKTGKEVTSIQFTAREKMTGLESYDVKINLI
UniProt Q06065: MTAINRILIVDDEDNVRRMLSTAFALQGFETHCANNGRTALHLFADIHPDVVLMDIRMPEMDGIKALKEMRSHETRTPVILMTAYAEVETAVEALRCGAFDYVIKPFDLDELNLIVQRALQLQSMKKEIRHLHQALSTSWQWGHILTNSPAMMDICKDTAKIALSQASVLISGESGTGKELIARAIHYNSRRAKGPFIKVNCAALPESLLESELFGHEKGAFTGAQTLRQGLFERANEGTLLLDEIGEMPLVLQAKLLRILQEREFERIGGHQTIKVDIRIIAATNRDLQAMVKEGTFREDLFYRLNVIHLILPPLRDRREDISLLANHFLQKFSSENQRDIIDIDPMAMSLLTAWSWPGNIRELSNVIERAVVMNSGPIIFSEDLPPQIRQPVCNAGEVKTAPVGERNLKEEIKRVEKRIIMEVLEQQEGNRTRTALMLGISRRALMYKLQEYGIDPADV
UniProt Q46863: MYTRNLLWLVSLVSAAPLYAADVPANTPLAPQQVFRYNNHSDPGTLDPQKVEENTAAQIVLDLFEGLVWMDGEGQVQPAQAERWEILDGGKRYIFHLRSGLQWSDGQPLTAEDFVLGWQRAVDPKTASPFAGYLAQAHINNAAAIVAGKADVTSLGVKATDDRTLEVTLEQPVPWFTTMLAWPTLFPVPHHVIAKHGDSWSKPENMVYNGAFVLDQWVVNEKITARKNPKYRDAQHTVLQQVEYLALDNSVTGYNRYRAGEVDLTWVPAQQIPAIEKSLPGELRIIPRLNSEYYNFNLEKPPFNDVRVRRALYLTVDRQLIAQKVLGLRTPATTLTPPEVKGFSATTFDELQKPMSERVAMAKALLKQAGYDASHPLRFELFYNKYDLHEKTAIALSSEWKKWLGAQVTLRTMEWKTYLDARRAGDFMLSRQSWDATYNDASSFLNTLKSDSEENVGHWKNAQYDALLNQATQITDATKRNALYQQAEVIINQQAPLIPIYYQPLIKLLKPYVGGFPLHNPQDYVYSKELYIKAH
UniProt P77756: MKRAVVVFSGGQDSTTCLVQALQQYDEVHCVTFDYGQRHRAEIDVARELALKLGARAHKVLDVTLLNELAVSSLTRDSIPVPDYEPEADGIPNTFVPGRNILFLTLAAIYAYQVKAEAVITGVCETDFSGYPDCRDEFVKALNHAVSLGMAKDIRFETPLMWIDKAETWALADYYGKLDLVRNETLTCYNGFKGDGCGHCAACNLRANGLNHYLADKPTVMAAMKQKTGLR
UniProt Q46812: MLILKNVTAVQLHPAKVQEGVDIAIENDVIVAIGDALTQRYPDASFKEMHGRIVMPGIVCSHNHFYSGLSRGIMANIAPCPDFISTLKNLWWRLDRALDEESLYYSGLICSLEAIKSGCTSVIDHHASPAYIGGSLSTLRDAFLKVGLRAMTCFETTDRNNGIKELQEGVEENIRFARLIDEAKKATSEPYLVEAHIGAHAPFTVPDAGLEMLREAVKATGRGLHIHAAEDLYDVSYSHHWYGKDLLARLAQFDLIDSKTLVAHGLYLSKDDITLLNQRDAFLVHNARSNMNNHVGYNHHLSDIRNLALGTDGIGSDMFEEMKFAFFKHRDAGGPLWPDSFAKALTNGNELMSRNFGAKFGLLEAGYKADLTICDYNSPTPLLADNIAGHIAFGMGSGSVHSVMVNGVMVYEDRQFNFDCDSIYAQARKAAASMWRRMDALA
UniProt Q46866: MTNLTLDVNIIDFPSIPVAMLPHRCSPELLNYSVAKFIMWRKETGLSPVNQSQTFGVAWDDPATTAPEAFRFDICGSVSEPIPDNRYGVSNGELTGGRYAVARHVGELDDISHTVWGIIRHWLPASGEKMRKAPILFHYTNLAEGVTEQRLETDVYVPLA
UniProt Q47679: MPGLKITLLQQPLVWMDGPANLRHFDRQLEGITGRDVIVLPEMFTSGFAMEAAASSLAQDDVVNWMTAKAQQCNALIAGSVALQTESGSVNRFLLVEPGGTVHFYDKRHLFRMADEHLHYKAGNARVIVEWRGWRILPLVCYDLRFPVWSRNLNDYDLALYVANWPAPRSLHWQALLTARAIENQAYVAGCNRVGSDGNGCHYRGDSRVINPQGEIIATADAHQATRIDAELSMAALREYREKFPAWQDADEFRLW
UniProt Q46795: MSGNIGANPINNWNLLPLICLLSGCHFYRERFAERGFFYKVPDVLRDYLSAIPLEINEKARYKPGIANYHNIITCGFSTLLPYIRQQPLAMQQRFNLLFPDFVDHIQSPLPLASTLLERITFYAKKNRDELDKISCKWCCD
UniProt P80668: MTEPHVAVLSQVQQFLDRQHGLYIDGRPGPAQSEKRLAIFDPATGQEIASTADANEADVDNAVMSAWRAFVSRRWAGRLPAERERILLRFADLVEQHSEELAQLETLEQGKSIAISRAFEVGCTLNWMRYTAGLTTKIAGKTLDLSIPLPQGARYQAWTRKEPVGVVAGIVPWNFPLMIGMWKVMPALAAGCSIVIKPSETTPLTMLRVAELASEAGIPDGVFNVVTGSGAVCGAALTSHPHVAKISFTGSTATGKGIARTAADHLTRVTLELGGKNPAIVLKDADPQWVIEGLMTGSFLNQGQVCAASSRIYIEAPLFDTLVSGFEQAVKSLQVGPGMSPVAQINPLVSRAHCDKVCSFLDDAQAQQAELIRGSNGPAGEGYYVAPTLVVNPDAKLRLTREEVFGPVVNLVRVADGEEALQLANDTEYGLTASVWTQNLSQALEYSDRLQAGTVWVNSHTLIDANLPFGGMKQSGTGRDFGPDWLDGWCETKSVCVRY
UniProt Q47622: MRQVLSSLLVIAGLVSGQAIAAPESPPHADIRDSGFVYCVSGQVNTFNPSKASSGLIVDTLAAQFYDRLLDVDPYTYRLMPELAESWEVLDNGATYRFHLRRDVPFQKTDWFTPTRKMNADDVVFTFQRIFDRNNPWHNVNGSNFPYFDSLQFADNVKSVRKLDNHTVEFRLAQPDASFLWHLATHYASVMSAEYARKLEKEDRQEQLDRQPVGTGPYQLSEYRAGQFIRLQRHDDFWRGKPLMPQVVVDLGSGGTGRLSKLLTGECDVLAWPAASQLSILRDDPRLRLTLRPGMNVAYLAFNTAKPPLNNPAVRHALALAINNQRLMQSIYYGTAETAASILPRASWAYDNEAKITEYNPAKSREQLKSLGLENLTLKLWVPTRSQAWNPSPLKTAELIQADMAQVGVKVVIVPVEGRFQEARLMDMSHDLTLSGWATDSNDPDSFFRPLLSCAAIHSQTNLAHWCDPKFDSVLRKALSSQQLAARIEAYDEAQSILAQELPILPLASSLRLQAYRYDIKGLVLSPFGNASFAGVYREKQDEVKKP
UniProt P77781: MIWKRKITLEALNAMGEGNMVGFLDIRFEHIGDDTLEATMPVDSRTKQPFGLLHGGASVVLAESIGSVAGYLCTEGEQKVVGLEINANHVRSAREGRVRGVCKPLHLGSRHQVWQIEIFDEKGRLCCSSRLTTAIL
UniProt Q46861: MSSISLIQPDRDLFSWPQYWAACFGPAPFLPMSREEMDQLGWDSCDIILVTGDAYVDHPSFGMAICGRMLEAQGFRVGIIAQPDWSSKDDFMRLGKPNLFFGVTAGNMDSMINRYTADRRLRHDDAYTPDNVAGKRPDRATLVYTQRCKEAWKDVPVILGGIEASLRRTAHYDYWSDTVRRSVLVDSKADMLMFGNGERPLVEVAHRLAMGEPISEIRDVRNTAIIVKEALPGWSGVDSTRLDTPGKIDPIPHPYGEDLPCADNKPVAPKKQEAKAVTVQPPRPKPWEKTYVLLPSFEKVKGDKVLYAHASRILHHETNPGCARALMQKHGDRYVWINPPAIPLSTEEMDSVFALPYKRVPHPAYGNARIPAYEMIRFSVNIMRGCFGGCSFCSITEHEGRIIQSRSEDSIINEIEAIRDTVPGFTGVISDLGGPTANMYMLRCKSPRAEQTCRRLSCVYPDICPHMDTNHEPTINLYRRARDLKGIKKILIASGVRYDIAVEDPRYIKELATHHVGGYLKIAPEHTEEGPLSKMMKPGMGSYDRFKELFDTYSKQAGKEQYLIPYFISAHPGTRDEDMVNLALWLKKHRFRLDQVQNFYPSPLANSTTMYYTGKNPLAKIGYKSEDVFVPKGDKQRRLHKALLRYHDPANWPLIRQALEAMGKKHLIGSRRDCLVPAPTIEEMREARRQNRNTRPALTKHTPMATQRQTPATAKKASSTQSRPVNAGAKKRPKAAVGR

compound: CC1(C)S[C@@H]2[C@H](NC(=O)[C@H](N)c3ccccc3)C(=O)N2[C@H]1C(=O)O [ampicillin]; experiment: log2 fold change of tryptic peptide abundance, ligand vs vehicle (limited proteolysis) (log2 ratio); higher = more trypsin-susceptible (destabilized); settings: ligand concentration: 10 uM; sample: E. coli crude lysate

Row | Target | log2 fold change
1 | UniProt V9HVX0 (peptide sequence: LEGLHEQAIK, peptide start residue: 21) | -1.1
2 | UniProt Q59385 (peptide sequence: AAEFGVLVR, peptide start residue: 498) | -0.381
3 | UniProt P77730 (peptide sequence: LFPLQQLNR, peptide start residue: 117) | -0.139
4 | UniProt Q46927 (peptide sequence: IRQINPECR, peptide start residue: 93) | -0.451
5 | UniProt Q46901 (peptide sequence: IIQNENGNR, peptide start residue: 318) | -0.675
6 | UniProt Q47319 (peptide sequence: FKTRYLAGK, peptide start residue: 209) | -0.154
7 | UniProt P77735 (peptide sequence: VGDLPEGLSR, peptide start residue: 93) | -0.146
8 | UniProt Q46845 (peptide sequence: TNGPLNEQLHER, peptide start residue: 261) | 0.2
9 | UniProt P77783 (peptide sequence: EKLDVPIK, peptide start residue: 458) | 0.313
10 | UniProt P77695 (peptide sequence: AEADISEYITK, peptide start residue: 10) | 0.148
11 | UniProt Q06065 (peptide sequence: RIIMEVLEQQEGNR, peptide start residue: 420) | -0.384
12 | UniProt P77748 (peptide sequence: DHLVATVESYAPLMAR, peptide start residue: 710) | 0.677
13 | UniProt Q46863 (peptide sequence: TAIALSSEWKK, peptide start residue: 392) | 0.594
14 | UniProt P77756 (peptide sequence: ANGLNHYLADKPTVMAAMK, peptide start residue: 207) | 0.099
15 | UniProt Q46812 (peptide sequence: NVTAVQLHPAK, peptide start residue: 6) | 0.783
16 | UniProt Q46866 (peptide sequence: YGVSNGELTGGR, peptide start residue: 87) | -0.158
17 | UniProt Q47679 (peptide sequence: IDAELSMAALR, peptide start residue: 228) | 0.241
18 | UniProt Q46795 (peptide sequence: KNRDELDK, peptide start residue: 126) | -0.474
19 | UniProt P80668 (peptide sequence: ISFTGSTATGK, peptide start residue: 246) | -0.412
20 | UniProt Q47622 (peptide sequence: GKPLMPQVVVDLGSGGTGR, peptide start residue: 240) | 0.602
21 | UniProt P77781 (peptide sequence: FEHIGDDTLEATMPVDSR, peptide start residue: 28) | 0.479
22 | UniProt Q46861 (peptide sequence: ASSTQSRPVNAGAK, peptide start residue: 717) | -0.655
23 | UniProt Q46939 (peptide sequence: DVVIVGALR, peptide start residue: 3) | -0.303

Some of the entries above in a different format:
Row	Target	log2 fold change
11	UniProt Q06065 (peptide sequence: RIIMEVLEQQEGNR, peptide start residue: 420)	-0.384
12	UniProt P77748 (peptide sequence: DHLVATVESYAPLMAR, peptide start residue: 710)	0.677
